The source of these data is patent US11511054B2, “Use of antistatic materials in the airway for thermal aerosol condensation process” (Alexza Pharmaceuticals, Inc., priority 2015, dated 2022).

“And” between values parts separate entries of the source, which are not always exact repeats. Identical values can stand only once.

The data set can be described thus: Airway deposition and aerosol charges of normal, metallized and Permastat Plus airways (Example 40). Type of data set: physicochemical. Particulars: 28.3 LPM.
Where [1] appears, read: Metallized airway, ESD gun 16 kV+.
[2] abbreviates: Permastat Plus airway, ESD gun 16 kV+.
Setting [3] is: Permastat Plus airway, no ESD gun.

`Cc1nnc2n1-c1ccc(Cl)cc1C(c1ccccc1)=NC2` [Alprazolam]: the Airway dep reads like this: under setting [1], 0%; (Normal airway, no ESD gun) 1% and 9%; under setting [2], 0%; under setting [3], 0%. Moreover, the “Airway dep (second column)” value under setting [1] was 0.001% and 0% and 0.002%; the “Airway dep (second column)” value (Normal airway, no ESD gun) was 0.007% and 0.095%; the “Airway dep (second column)” value under setting [2] is 0.001% and 0%; the “Airway dep (second column)” value under setting [3] turned out to be 0%. Moreover, the “Ave Airway dep” value by setting is: under setting [1], 0%; (Normal airway, ESD gun 16 kV+) 8.5%; (Normal airway, no ESD gun) 5%; under setting [2], 0%; under setting [3], 0%. Also, the Emitted dose is, setting by setting: under setting [1], 0.971 mg and 0.959 mg and 0.963 mg; (Metallized airway, no ESD gun) 0.964 mg and 0.961 mg; (Normal airway, no ESD gun) 0.956 mg and 0.874 mg; under setting [2], 0.956 mg and 0.959 mg; under setting [3], 0.962 mg and 0.963 mg. For the same compound, the HP dep by setting is: under setting [1], 0.028 mg and 0.041 mg and 0.035 mg; (Metallized airway, no ESD gun) 0.036 mg and 0.038 mg; (Normal airway, no ESD gun) 0.037 mg and 0.031 mg; under setting [2], 0.043 mg and 0.041 mg; under setting [3], 0.038 mg and 0.037 mg.
